Results are given in words; binding and its absence hold for the method and conditions named. A result given as binding can be weak or reduced; the word gives no strength. One block for each binder: values may come before it.
What was measured:
Test in all cases: two-hybrid; yeast strain Y2H Gold; RcGPXs as bait, Arabidopsis genes as prey (pGBKT7 and pGADT7 vectors); growth on SD-Trp-Leu-His solid media, SD-Trp-Leu as control; empty vectors as negative control
[1] = target: Rhodiola crenulata glutathione peroxidase RcGPX2 (Rhodiola crenulata)
[2] = target: Rhodiola crenulata glutathione peroxidase RcGPX4 (Rhodiola crenulata)
[3] = target: Rhodiola crenulata glutathione peroxidase RcGPX5 (Rhodiola crenulata)
[4] = target: Rhodiola crenulata glutathione peroxidase RcGPX7 (Rhodiola crenulata)
[5] = target: Rhodiola crenulata glutathione peroxidase RcGPX8 (Rhodiola crenulata)

B1: AtCML38 (calmodulin gene) (protein, UniProt Q9SRE6 1-177)
chain: MKNNTQPQSSFKKLCRKLSPKREDSAGEIQQHNSSNGEDKNRELEAVFSYMDANRDGRISPEELQKSFMTLGEQLSDEEAVAAVRLSDTDGDGMLDFEEFSQLIKVDDEEEKKMELKGAFRLYIAEGEDCITPRSLKMMLKKLGESRTTDDCRVMISAFDLNADGVLSFDEFALMMR
- binding [1]: binds
- binding [2]: binds
- binding [3]: binds
- binding [4]: binds
- binding [5]: no binding

B3: AtACS6 (protein, UniProt Q9SAR0 1-495)
chain: MVAFATEKKQDLNLLSKIASGDGHGENSSYFDGWKAYEENPFHPIDRPDGVIQMGLAENQLCGDLMRKWVLKHPEASICTSEGVNQFSDIAIFQDYHGLPEFRQAVAKFMEKTRNNKVKFDPDRIVMSGGATGAHETVAFCLANPGDGFLVPTPYYPGFDRDLRWRTGVNLVPVTCHSSNGFKITVEALEAAYENARKSNIPVKGLLVTNPSNPLGTTLDRECLKSLVNFTNDKGIHLIADEIYAATTFGQSEFISVAEVIEEIEDCNRDLIHIVYSLSKDMGLPGLRVGIVYSYNDRVVQIARKMSSFGLVSSQTQHLIAKMLSDEEFVDEFIRESKLRLAARHAEITTGLDGLGIGWLKAKAGLFLWMDLRNLLKTATFDSETELWRVIVHQVKLNVSPGGSFHCHEPGWFRVCFANMDHKTMETALERIRVFTSQLEEETKPMAATTMMAKKKKKCWQSNLRLSFSDTRRFDDGFFSPHSPVPPSPLVRAQT
- binding [1]: no binding
- binding [2]: no binding
- binding [3]: no binding
- binding [4]: no binding
- binding [5]: no binding

B4: AtACS7 (protein, UniProt Q9STR4 1-447)
chain: MGLPLMMERSSNNNNVELSRVAVSDTHGEDSPYFAGWKAYDENPYDESHNPSGVIQMGLAENQVSFDLLETYLEKKNPEGSMWGSKGAPGFRENALFQDYHGLKTFRQAMASFMEQIRGGKARFDPDRIVLTAGATAANELLTFILADPNDALLVPTPYYPGFDRDLRWRTGVKIVPIHCDSSNHFQITPEALESAYQTARDANIRVRGVLITNPSNPLGATVQKKVLEDLLDFCVRKNIHLVSDEIYSGSVFHASEFTSVAEIVENIDDVSVKERVHIVYSLSKDLGLPGFRVGTIYSYNDNVVRTARRMSSFTLVSSQTQHMLASMLSDEEFTEKYIRINRERLRRRYDTIVEGLKKAGIECLKGNAGLFCWMNLGFLLEKKTKDGELQLWDVILKELNLNISPGSSCHCSEVGWFRVCFANMSENTLEIALKRIHEFMDRRRRF
- binding [1]: no binding
- binding [2]: no binding
- binding [3]: no binding
- binding [4]: no binding
- binding [5]: no binding

B5: AtACO1 (protein, UniProt Q9ZUN4 1-310)
chain: MVLIKEREMEIPVIDFAELDGEKRSKTMSLLDHACDKWGFFMVDNHGIDKELMEKVKKMINSHYEEHLKEKFYQSEMVKALSEGKTSDADWESSFFISHKPTSNICQIPNISEELSKTMDEYVCQLHKFAERLSKLMCENLGLDQEDIMNAFSGPKGPAFGTKVAKYPECPRPELMRGLREHTDAGGIILLLQDDQVPGLEFFKDGKWVPIPPSKNNTIFVNTGDQLEILSNGRYKSVVHRVMTVKHGSRLSIATFYNPAGDAIISPAPKLLYPSGYRFQDYLKLYSTTKFGDKGPRLETMKKMGNADSA
- binding [1]: no binding
- binding [2]: no binding
- binding [3]: no binding
- binding [4]: no binding
- binding [5]: no binding

B7: AtACS9 (protein, UniProt Q9M2Y8 1-470)
chain: MKQLSRKVTSNAHGQDSSYFLGWEEYEKNPYDEIKNPNGIIQMGLAENQLCFDLIETWLAKNPDAAGLKKDGQSIFKELALFQDYHGLPEFKKALAEFMEEIRGNRVTFDPSKIVLAAGSTSANETLMFCLAEPGDAFLLPTPYYPGFDRDLKWRTGAEIVPIHCSSSNGFQITESALQQAYQQAQKLDLKVKGVLVTNPSNPLGTMLTRRELNLLVDFITSKNIHLISDEIYSGTVFGFEQFVSVMDVLKDKNLENSEVSKRVHIVYSLSKDLGLPGFRVGAIYSNDEMVVSAATKMSSFGLVSSQTQYLLSALLSDKKFTSTYLDENQKRLKIRQKKLVSGLEAAGITCLKSNAGLFCWVDMRHLLDTNTFEAELELWKKIVYDVKLNISPGSSCHCTEPGWFRVCFANMSEDTLDLAMKRLKEYVESTDSRRVISKSSHDRIKSLRKRTVSNWVFRVSWTDRVPDER
- binding [1]: no binding
- binding [2]: no binding
- binding [3]: no binding
- binding [4]: no binding
- binding [5]: no binding

B9: AtNAC102, NAC (NAM/ATAF/CUC transcription factor) family member (protein, UniProt Q8H115 1-312)
chain: MDFALFSSISIFEINHKDPPIRRFIKTQNRILSTRKQQGTFPKMKAELNLPAGFRFHPTDEELVKFYLCRRCASEPINVPVIAEIDLYKFNPWELPEMALYGEKEWYFFSHRDRKYPNGSRPNRAAGTGYWKATGADKPIGKPKTLGIKKALVFYAGKAPKGIKTNWIMHEYRLANVDRSASTNKKNNLRLDDWVLCRIYNKKGTMEKYLPAAAEKPTEKMSTSDSRCSSHVISPDVTCSDNWEVESEPKWINLEDALEAFNDDTSMFSSIGLLQNDAFVPQFQYQSSDFVDSFQDPFEQKPFLNWNFAPQG
- binding [1]: no binding
- binding [2]: no binding
- binding [3]: binds
- binding [4]: no binding
- binding [5]: no binding

B11: AtACO5 (protein, UniProt Q0WPW4 1-307)
chain: MAIPVIDFSKLNGEEREKTLSEIARACEEWGFFQLVNHGIPLELLNKVKKLSSDCYKTEREEAFKTSNPVKLLNELVQKNSGEKLENVDWEDVFTLLDHNQNEWPSNIKETMGEYREEVRKLASKMMEVMDENLGLPKGYIKKAFNEGMEDGEETAFFGTKVSHYPPCPHPELVNGLRAHTDAGGVVLLFQDDEYDGLQVLKDGEWIDVQPLPNAIVINTGDQIEVLSNGRYKSAWHRVLAREEGNRRSIASFYNPSYKAAIGPAAVAEEEGSEKKYPKFVFGDYMDVYANQKFMPKEPRFLAVKSL
- binding [1]: no binding
- binding [2]: no binding
- binding [3]: no binding
- binding [4]: no binding
- binding [5]: no binding

B13: AtACS2 (protein, UniProt Q06402 1-496)
chain: MGLPGKNKGAVLSKIATNNQHGENSEYFDGWKAYDKDPFHLSRNPHGIIQMGLAENQLCLDLIKDWVKENPEASICTLEGIHQFSDIANFQDYHGLKKFRQAIAHFMGKARGGRVTFDPERVVMSGGATGANETIMFCLADPGDVFLIPSPYYAAFDRDLRWRTGVEIIPVPCSSSDNFKLTVDAAEWAYKKAQESNKKVKGLILTNPSNPLGTMLDKDTLTNLVRFVTRKNIHLVVDEIYAATVFAGGDFVSVAEVVNDVDISEVNVDLIHIVYSLSKDMGLPGFRVGIVYSFNDSVVSCARKMSSFGLVSSQTQLMLASMLSDDQFVDNFLMESSRRLGIRHKVFTTGIKKADIACLTSNAGLFAWMDLRHLLRDRNSFESEIELWHIIIDRVKLNVSPGSSFRCTEPGWFRICFANMDDDTLHVALGRIQDFVSKNKNKIVEKASENDQVIQNKSAKKLKWTQTNLRLSFRRLYEDGLSSPGIMSPHSPLLRA
- binding [1]: no binding
- binding [2]: no binding
- binding [3]: no binding
- binding [4]: no binding
- binding [5]: no binding

The remaining lines, values ahead:

- binding [1]: binds
- binding [2]: binds
- binding [3]: binds
- binding [4]: binds
- binding [5]: binds
B2: AtTrxm2 (protein, UniProt Q9SEU8 1-186)
chain: MAAFTCTSRPPISLRSETRIVSSSPSASSLSSRRMFAVLPESSGLRIRLSLSPASLTSIHQPRVSRLRRAVVCEAQETTTDIQVVNDSTWDSLVLKATGPVVVDFWAPWCGPCKMIDPLVNDLAQHYTGKIKFYKLNTDESPNTPGQYGVRSIPTIMIFVGGEKKDTIIGAVPKTTLTSSLDKFLP

- binding [1]: no binding
- binding [2]: no binding
- binding [3]: binds
- binding [4]: no binding
- binding [5]: no binding
B6: AtTrxh7 (protein, UniProt Q9XIF4 1-129)
chain: MGSNVSSVHDVHSSMEITSNGFVVEIESRRQWKSLFDSMKGSNKLLVIDFTAVWCGPCKAMEPRVREIASKYSEAVFARVDVDRLMDVAGTYRAITLPAFVFVKRGEEIDRVVGAKPDELVKKIEQHRV

- binding [3]: binds
- binding [5]: binds
B8: AtTrxf2 (protein, UniProt Q9XFH9 1-185)
chain: MPLSLRLAPSPTSFRYSPITSTGAGGFSPVKQHCRIPNSGVATKIGFCSGGGGVLDSGRRIGSCVVRCSLETVNVTVGQVTEVDKDTFWPIVKAAGDKIVVLDMYTQWCGPCKVIAPKYKELSEKYQDMVFLKLDCNQDNKPLAKELGIRVVPTFKILKDNKVVKEVTGAKYEDLLAAIEAARSG

- binding [1]: no binding
- binding [2]: no binding
- binding [3]: binds
- binding [4]: no binding
- binding [5]: no binding
B10: AtTrx4 (protein, UniProt Q39239 1-119)
chain: MAAEEGQVIGCHTNDVWTVQLDKAKESNKLIVIDFTASWCPPCRMIAPIFNDLAKKFMSSAIFFKVDVDELQSVAKEFGVEAMPTFVFIKAGEVVDKLVGANKEDLQAKIVKHTGVTTA

- binding [1]: no binding
- binding [2]: no binding
- binding [3]: no binding
- binding [4]: binds
- binding [5]: no binding
B12: AtTrxm3 (protein, UniProt Q9SEU7 1-173)
chain: MAISSSSSSICFNPTRFHTARHISSPSRLFPVTSFSPRSLRFSDRRSLLSSSASRLRLSPLCVRDSRAAEVTQRSWEDSVLKSETPVLVEFYTSWCGPCRMVHRIIDEIAGDYAGKLNCYLLNADNDLPVAEEYEIKAVPVVLLFKNGEKRESIMGTMPKEFYISAIERVLNS

From paper PMC6274781
